In the supplement of paper PMC10849652:
The list shows a part of the results.

The chains behind the UniProt entries cited, without tags or fusion partners. Where a name states a change or a piece, a line headed by the entry shows the natural chain unless it says otherwise.
UniProt P24666: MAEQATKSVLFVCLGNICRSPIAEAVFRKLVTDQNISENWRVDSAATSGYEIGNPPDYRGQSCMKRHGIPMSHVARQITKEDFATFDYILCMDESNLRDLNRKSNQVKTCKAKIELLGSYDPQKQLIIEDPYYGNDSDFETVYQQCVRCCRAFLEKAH
UniProt Q8NFV4: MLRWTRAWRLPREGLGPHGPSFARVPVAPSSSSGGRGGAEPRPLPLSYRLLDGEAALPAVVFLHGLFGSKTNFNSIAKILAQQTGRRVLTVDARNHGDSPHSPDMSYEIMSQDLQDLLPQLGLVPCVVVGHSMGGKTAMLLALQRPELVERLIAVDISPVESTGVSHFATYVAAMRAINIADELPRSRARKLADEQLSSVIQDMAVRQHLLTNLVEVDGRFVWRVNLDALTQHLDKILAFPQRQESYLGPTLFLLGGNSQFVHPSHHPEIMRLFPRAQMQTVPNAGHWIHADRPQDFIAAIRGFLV
UniProt Q9BZC7: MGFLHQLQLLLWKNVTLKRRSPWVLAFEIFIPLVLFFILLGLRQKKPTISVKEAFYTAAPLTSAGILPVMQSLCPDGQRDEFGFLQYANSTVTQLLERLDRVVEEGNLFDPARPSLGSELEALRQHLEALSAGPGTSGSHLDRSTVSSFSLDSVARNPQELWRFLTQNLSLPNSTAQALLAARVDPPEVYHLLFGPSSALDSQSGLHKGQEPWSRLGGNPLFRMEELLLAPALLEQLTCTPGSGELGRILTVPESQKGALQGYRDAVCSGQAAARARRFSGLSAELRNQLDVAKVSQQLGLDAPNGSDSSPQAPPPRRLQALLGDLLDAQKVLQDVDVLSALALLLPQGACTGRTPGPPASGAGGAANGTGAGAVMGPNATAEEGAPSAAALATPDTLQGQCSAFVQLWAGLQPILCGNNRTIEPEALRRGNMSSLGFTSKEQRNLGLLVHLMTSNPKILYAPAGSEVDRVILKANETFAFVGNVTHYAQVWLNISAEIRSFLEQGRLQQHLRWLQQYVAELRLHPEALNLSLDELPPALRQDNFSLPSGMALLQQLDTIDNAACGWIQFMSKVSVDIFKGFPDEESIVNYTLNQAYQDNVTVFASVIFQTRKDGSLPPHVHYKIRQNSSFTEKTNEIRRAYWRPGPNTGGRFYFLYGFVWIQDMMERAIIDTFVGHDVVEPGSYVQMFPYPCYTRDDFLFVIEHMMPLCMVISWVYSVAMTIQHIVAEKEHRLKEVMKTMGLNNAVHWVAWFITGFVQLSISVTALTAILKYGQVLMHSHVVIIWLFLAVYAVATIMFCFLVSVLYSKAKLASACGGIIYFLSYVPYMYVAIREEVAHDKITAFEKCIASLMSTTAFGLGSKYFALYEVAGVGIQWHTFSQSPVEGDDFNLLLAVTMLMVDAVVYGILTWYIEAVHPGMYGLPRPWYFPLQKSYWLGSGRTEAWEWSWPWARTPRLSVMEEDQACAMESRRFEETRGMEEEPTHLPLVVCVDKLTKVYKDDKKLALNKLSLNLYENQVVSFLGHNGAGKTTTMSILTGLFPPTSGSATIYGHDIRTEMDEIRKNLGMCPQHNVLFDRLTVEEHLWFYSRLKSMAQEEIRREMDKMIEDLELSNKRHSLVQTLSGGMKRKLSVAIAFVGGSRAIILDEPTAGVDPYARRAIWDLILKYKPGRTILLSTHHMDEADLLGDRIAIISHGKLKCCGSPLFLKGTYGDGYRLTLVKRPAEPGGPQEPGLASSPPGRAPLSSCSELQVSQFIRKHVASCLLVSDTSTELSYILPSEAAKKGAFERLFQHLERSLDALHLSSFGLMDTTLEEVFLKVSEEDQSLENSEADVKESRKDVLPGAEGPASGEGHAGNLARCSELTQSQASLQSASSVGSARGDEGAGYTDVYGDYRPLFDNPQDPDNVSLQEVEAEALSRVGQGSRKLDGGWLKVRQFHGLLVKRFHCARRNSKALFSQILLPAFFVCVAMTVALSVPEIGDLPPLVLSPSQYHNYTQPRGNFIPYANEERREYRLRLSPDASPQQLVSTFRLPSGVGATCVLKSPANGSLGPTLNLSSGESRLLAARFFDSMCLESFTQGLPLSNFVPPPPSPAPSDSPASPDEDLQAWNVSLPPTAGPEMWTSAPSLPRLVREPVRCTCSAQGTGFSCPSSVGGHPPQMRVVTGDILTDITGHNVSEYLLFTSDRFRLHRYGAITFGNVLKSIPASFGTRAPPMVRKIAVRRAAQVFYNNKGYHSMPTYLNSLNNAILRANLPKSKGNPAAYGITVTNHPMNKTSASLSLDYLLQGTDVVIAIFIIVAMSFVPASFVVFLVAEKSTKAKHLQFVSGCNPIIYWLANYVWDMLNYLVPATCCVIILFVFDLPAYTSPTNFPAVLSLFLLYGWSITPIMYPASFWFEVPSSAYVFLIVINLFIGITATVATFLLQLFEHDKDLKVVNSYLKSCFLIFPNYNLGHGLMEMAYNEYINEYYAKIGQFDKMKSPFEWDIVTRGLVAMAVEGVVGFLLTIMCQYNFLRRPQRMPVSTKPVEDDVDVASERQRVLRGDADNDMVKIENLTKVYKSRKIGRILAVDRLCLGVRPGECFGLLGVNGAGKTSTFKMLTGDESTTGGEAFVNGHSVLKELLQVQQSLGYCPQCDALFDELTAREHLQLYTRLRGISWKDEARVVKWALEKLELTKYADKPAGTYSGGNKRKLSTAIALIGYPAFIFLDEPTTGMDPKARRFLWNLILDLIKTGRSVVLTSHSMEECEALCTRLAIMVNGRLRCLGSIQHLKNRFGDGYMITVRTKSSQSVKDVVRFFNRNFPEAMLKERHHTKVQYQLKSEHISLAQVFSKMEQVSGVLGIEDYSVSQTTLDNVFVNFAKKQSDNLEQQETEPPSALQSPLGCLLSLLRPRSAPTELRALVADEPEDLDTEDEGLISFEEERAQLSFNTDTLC
UniProt Q8TB40: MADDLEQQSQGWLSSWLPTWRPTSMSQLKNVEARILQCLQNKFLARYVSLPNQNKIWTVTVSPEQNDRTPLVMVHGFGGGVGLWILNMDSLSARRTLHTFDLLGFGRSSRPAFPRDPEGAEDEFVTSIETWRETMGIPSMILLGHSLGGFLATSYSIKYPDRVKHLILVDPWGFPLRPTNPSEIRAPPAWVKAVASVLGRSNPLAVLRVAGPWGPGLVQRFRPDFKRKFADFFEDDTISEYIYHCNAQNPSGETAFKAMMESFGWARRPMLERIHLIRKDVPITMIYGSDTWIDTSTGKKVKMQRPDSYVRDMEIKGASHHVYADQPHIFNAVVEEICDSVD
UniProt P78363: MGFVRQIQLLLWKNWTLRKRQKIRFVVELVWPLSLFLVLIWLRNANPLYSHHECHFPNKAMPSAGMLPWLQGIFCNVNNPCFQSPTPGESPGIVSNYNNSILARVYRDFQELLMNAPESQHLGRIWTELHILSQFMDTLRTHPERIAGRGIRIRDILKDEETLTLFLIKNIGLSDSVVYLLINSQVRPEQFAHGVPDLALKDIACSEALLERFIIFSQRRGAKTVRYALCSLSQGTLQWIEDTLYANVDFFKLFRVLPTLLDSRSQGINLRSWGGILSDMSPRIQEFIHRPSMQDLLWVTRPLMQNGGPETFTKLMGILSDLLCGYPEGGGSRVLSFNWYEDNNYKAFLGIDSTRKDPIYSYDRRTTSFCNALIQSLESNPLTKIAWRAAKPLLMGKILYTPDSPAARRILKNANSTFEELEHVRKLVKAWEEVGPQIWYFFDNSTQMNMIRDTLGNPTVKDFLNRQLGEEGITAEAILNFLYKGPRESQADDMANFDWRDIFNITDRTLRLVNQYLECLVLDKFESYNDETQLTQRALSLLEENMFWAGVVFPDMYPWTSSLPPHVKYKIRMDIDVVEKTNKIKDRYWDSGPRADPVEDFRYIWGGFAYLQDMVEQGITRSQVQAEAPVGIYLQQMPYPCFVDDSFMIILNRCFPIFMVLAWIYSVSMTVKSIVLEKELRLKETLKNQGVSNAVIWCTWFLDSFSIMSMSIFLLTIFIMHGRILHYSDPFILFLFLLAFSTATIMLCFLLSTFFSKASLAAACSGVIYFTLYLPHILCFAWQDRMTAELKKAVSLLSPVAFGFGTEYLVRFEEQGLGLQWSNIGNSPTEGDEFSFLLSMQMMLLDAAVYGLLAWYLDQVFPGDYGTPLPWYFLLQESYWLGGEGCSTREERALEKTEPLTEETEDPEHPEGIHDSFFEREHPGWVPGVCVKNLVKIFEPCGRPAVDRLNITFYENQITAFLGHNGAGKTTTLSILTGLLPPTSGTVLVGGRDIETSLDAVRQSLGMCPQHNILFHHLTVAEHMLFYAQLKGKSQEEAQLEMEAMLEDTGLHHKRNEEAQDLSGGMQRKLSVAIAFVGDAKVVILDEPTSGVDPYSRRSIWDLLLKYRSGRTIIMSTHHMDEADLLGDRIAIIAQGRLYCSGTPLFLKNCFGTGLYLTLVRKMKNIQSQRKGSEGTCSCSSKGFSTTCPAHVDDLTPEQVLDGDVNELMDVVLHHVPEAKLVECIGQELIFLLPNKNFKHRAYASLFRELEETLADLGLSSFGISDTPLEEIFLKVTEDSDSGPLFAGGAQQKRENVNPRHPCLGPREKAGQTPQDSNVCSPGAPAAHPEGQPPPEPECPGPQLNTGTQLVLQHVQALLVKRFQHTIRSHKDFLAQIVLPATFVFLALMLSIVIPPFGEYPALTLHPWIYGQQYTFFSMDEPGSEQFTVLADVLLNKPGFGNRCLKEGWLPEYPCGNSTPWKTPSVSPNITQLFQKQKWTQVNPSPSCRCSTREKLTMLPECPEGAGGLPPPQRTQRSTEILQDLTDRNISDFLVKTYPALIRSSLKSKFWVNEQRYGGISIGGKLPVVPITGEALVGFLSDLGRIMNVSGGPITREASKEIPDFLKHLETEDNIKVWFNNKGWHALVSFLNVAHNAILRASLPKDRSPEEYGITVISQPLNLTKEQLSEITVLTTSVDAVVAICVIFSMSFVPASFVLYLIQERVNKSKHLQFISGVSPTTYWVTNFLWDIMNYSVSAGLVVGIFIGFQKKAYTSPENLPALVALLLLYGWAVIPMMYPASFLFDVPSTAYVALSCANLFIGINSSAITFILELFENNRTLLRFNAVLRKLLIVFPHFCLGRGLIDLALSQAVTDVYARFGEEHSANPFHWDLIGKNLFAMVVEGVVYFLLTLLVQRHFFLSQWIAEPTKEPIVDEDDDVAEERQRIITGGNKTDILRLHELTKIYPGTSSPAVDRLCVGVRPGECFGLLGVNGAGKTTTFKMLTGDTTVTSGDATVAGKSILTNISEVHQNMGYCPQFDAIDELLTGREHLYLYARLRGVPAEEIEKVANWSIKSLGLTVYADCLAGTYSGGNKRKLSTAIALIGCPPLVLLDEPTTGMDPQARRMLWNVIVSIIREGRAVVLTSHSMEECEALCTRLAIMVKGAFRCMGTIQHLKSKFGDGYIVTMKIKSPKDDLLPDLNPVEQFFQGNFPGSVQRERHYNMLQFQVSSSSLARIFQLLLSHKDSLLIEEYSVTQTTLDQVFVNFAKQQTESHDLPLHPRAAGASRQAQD
UniProt P33897: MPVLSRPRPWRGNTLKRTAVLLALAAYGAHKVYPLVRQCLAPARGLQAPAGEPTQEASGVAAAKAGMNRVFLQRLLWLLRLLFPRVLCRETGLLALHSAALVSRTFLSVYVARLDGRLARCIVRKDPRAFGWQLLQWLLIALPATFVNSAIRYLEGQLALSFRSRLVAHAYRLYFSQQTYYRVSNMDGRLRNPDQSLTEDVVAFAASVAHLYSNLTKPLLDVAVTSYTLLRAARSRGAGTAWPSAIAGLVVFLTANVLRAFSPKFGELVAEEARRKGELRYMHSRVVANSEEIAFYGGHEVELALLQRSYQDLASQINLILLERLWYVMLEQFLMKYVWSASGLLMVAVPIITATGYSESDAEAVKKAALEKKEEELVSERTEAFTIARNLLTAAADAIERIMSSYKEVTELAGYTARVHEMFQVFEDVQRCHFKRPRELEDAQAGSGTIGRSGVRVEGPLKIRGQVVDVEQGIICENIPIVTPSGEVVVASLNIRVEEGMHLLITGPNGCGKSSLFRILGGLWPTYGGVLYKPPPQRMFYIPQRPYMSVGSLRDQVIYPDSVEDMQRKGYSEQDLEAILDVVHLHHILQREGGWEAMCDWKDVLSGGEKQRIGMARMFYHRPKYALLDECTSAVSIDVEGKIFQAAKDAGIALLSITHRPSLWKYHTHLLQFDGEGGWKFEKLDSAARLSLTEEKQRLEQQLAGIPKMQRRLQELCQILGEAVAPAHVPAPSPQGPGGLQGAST
UniProt Q8N6N7: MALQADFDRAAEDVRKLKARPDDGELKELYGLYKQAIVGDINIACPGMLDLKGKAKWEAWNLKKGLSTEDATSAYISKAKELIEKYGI
UniProt Q9P1F3: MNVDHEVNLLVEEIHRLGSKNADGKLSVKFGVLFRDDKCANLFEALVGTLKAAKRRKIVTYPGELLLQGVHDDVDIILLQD

Legend:
Experiment in all cases: log2 fold change, soluble protein after heating vs DMSO (PISA); higher = thermal stabilisation; K562 cells, 10 uM, 30 min; active = over 0.2 and 3.5 SD of the protein, either way, in both replicates (recomputed)
[1] = compound: CC[C@@H]1C(=O)N(C)c2cnc(Nc3ccc(C(=O)NC4CCN(C)CC4)cc3OC)nc2N1C1CCCC1
Procedure, shortened: (§1)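 K562 cells (2×10^6 cells/mL) were treated with 10 μM compound for 30 min, and aliquots were heated for 3 min over 48°C-58°C. Pooled aliquots were extracted in PBS with 0.5% NP-40 at 4°C, and the supernatant after 21,000xg for 90 min was measured by TMTpro 16plex LC-MS/MS with channel sums equalised. Reported thermal stability, relative to control samples and from duplicates, is a log2 fold change.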

volasertib = compound: CC[C@@H]1C(=O)N(C)c2cnc(Nc3ccc(C(=O)N[C@H]4CC[C@H](N5CCN(CC6CC6)CC5)CC4)cc3OC)nc2N1C(C)C [volasertib]
Procedure, shortened: as §1

[2] = compound: CC[C@H](C)N1C=C(C2=C(C=C(C=C21)C3=CN=C(C=C3)N4CCNCC4)C(=O)NCC5=C(C=C(NC5=O)C)C)C
Procedure, shortened: as §1

epoxomicin = compound: CC[C@H](C)[C@@H](C(=O)N[C@@H]([C@@H](C)O)C(=O)N[C@@H](CC(C)C)C(=O)[C@]1(CO1)C)NC(=O)[C@H]([C@@H](C)CC)N(C)C(=O)C [epoxomicin]
Procedure, shortened: as §1

[3] = compound: CCn1cc(-c2ccnc3[nH]c(-c4cccc(CN(C)C)c4)cc23)c(-c2ccc(NC(=O)N(C)C)cc2)n1
Procedure, shortened: as §1

[4] = compound: CN(C)CC(=O)Nc1ccc2[nH]c(=O)c3ccccc3c2c1
Procedure, shortened: as §1

[5] = compound: CN1C2=C(C3=C1C(=O)N(N=C3)CC4=CC(=CC=C4)N)SC(=C2)S(=O)C
Procedure, shortened: as §1

[6] = compound: CN1CCC(CNc2ccc3ncc(-c4cccc(OC(F)(F)F)c4)n3n2)CC1
Procedure, shortened: as §1

[7] = compound: CCn1c(C(=O)N(C2CC2)C2CC2)cc2c3c(ncn3C)c(Nc3cc(C)n(C)n3)nc21
Procedure, shortened: as §1

rosiglitazone = compound: CN(CCOC1=CC=C(C=C1)C[C@H]2C(=O)NC(=O)S2)C3=CC=CC=N3 (racemic) [rosiglitazone]
Procedure, shortened: as §1

Measured: log2 fold change

ACP1 (UniProt P24666)
inactive: [1] 0.084 | volasertib -0.102 | [2] -0.001 | epoxomicin 0.03 | [3] 0.077 | [4] 0.12 | [5] 0.099 | [6] -0.061

ACSL1 (UniProt P33121)
inactive: [1] -0.09 | volasertib -0.183 | [2] 0.012 | epoxomicin 0.018 | [3] -0.031 | [4] 0 | [5] -0.064
active: [6] -0.393

ABCA3 (UniProt Q99758)
inactive: [1] -0.155 | volasertib -0.093 | epoxomicin 0 | [3] 0.168 | [4] 0.108 | [5] -0.013 | [6] -0.263

ACO2 (UniProt Q99798)
active: [6] -0.344
inactive: [1] 0.043 | volasertib 0.037 | [2] 0.022 | epoxomicin 0.046 | [3] -0.115 | [4] 0.055 | [5] -0.118

ABHD11 (UniProt Q8NFV4)
inactive: [1] -0.077 | volasertib -0.127 | [2] -0.003 | epoxomicin 0.272 | [3] 0.086 | [4] 0.007 | [5] -0.033 | [6] -0.126

AAMP (UniProt Q13685)
inactive: [1] 0.072 | volasertib 0.051 | [2] -0.016 | epoxomicin -0.017 | [3] -0.016 | [4] 0.011 | [5] -0.004 | [6] 0.054

ACVR1 (UniProt Q04771)
active: [6] 0.925
inactive: [1] -0.104 | volasertib -0.2 | epoxomicin 0.16 | [3] 0.065 | [4] -0.095 | [5] -0.111

ACACB (UniProt O00763)
inactive: [1] -0.006 | volasertib -0.468 | [2] 0.083 | epoxomicin -0.1 | [3] 0.086 | [4] 0.061 | [5] 0.308 | [6] 0.104

AAK1, A0A096LP25
inactive: [1] -0.086 | [2] -0.005 | epoxomicin -0.098 | [3] -0.031 | [4] 0.037 | [5] -0.073 | [6] 0.332

AACS (UniProt Q86V21)
inactive: epoxomicin 0.022

ABCC10 (UniProt Q5T3U5)
inactive: volasertib -0.075 | [2] 0.188 | epoxomicin 0.011 | [7] -0.08 | [3] -0.116 | [4] 0.01 | rosiglitazone 0.032 | [5] -0.095 | [6] 0.036

ACTR3B (UniProt Q9P1U1)
inactive: volasertib -0.063 | [2] 0.261 | [3] -0.047 | [4] -0.05 | [6] 0.048

ABAT (UniProt P80404)
inactive: epoxomicin -0.069

ACAD10 isoform 5 (UniProt Q6JQN1)
inactive: [7] -0.117 | [4] 0.072 | [5] -0.046

ACTB (UniProt E7EVS6)
inactive: [7] -0.119

AASDH (UniProt Q4L235)
active: volasertib -0.445
inactive: [2] 0.141 | epoxomicin 0.028 | [3] 0.149 | [4] 0.189 | [5] -0.019 | [6] 0.004

ABCA2 isoform 3 (UniProt Q9BZC7)
inactive: [1] 0.09 | rosiglitazone 0.159

ADCK1 (UniProt Q86TW2)
inactive: volasertib -0.067 | [2] 0.016 | epoxomicin 0.077 | [7] 0.067 | [4] -0.016 | [5] 0.208

ABHD4 (UniProt Q8TB40)
inactive: epoxomicin 0.074 | [7] -0.036 | rosiglitazone 0.189

ABCA4 (UniProt P78363)
inactive: [1] 0.117 | [2] -0.202 | epoxomicin -0.046 | [3] -0.163 | [6] -0.087

ABCB11 (UniProt O95342)
inactive: volasertib -0.031

ABCB5 (UniProt Q2M3G0)
inactive: [2] 0.05 | [7] -0.018 | rosiglitazone 0.022

ACTG1 (UniProt I3L4N8)
inactive: [1] 0.051 | [2] -0.03 | [7] 0.062 | [5] -0.163

ACBD5 (UniProt Q5T8D3)
inactive: volasertib 0.394 | epoxomicin 0.044 | [7] -0.134 | [3] 0.141 | [4] 0.166 | [5] 0.068 | [6] 0.062

ABL2 (UniProt P42684)
inactive: epoxomicin 0.226 | rosiglitazone 0.27

ACCS (UniProt Q96QU6)
inactive: [1] -0.111 | [2] -0.027 | epoxomicin 0.09 | [7] 0.002 | [3] -0.072 | rosiglitazone -0.039 | [6] 0.035

ABHD14A (UniProt Q9BUJ0)
inactive: [5] 0.118

ACTC1 (UniProt P68032)
inactive: [1] -0.196 | [7] 0.066

ABHD3 (UniProt Q8WU67)
inactive: [7] -0.065

ADAD1 (UniProt Q96M93)
inactive: [1] 0.058 | [2] -0.145 | [7] -0.08 | [3] 0.047 | [4] -0.042 | rosiglitazone 0.052 | [5] 0.071 | [6] -0.178

ADAM15 (UniProt Q13444)
inactive: volasertib -0.103 | [2] -0.02 | epoxomicin 0.034 | [3] -0.001 | [4] 0.066 | [5] -0.028 | [6] -0.016

ACTRT1 (UniProt Q8TDG2)
inactive: volasertib 0.041 | epoxomicin -0.146 | [7] 0.012 | [3] 0.044 | [4] -0.212 | rosiglitazone 0.059 | [5] 0.039 | [6] -0.195

ACSF2 isoform 2 (UniProt Q96CM8)
inactive: [7] 0.088 | [3] -0.069 | [6] -0.082

ABCA7 (UniProt Q8IZY2)
inactive: [1] -0.079 | [2] 0.075 | epoxomicin -0.026 | [7] 0.06 | [3] 0.014 | rosiglitazone -0.028 | [6] -0.078

ABHD5 (UniProt Q8WTS1)
inactive: [1] -0.032 | volasertib -0.225 | [7] -0.157 | rosiglitazone -0.269 | [5] 0.195

ABCD1 (UniProt P33897)
inactive: epoxomicin 0.108 | [7] -0.125

ACOX1 isoform 3 (UniProt Q15067)
inactive: [4] -0.272

ADAM8 (UniProt P78325)
inactive: epoxomicin 0.139 | [7] -0.151

ACBD7 (UniProt Q8N6N7)
inactive: [1] 0.038 | volasertib -0.123 | [3] -0.133 | [5] -0.208 | [6] 0.033

ADAMTS5 (UniProt Q9UNA0)
inactive: [1] 0.011 | [2] -0.211 | [3] -0.16 | [4] 0.045 | [5] -0.018 | [6] -0.039

ABRACL (UniProt Q9P1F3)
inactive: [2] -0.024 | rosiglitazone 0.04

ACSL6 isoform 1 (UniProt Q9UKU0)
inactive: [2] 0.08 | epoxomicin -0.159 | [3] -0.014 | [4] 0.149 | [5] -0.226
active: [6] -0.459

ACTB, A0A2R8YEA7
inactive: [1] -0.007 | [2] 0.057 | [7] 0.046 | [4] 0.087 | rosiglitazone 0.019 | [5] 0.127

ABCA8 isoform 3 (UniProt O94911)
inactive: [7] 0.107 | rosiglitazone 0.352

3 records drawn at random from the list so far:
ADAMTS5 (UniProt Q9UNA0)
inactive: [1] 0.011 | [2] -0.211 | [3] -0.16 | [4] 0.045 | [5] -0.018 | [6] -0.039

AAK1, A0A096LP25
inactive: [1] -0.086 | [2] -0.005 | epoxomicin -0.098 | [3] -0.031 | [4] 0.037 | [5] -0.073 | [6] 0.332

ACTG1 (UniProt I3L4N8)
inactive: [1] 0.051 | [2] -0.03 | [7] 0.062 | [5] -0.163

Later entries

ABCB4 (UniProt P21439)
inactive: [1] 0.169 | volasertib 0.108 | [7] -0.154 | [4] -0.074

ABCF1 (UniProt Q5STZ8)
inactive: [2] -0.141 | [4] -0.016 | rosiglitazone 0.037
